Measurements published in patent US20140213759 (published 2014).
Square brackets hold non-standard residues; d marks the D form. * marks the point of attachment. Asn(Trt) = N[C@@H](CC(=O)NC(c1ccccc1)(c1ccccc1)c1ccccc1)C(=O)O; Boc = CC(C)(C)OC(=O)*; tBu = CC(C)(C)*

Assay: peptide synthesis
Details: whole synthesis

| Substance | outcome | crude HPLC purity (run 1) [%] | crude HPLC purity (run 2) [%] |
| --- | --- | --- | --- |
| Boc-Ser(Bzl)-Phe-Pro-Ile-Leu-Pro-Pro-Glu(OBzl)-Glu(OBzl)-Tyr(Bzl)-Leu(OBzl) | it was not possible to collect the obtained precipitate | – | – |
| H-LW(Boc)V[Asn(Trt)]S(tBu)-NH2 | – | 79 | 49 |
